# Results from PubChem BioAssay AID504834 (National Center for Advancing Translational Sciences (NCATS), 2011).
# “And” between values parts separate entries of the source, which are not always exact repeats. Identical values can stand only once. In all, about 320,000 compounds went through this assay and about 22,000 (6.9%) were called active. The inconclusive results got no clear call from the source; some entries with a clear call stand among them for comparison. Calls follow the shape of the dose curve; as a rule, active = well fitted inhibition curve with a large enough effect; inconclusive = small, poorly fitted or top-dose-only effect, or another doubt; inactive = no such curve, though single readings can be large or run the other way. A potency beside an inconclusive call is a rough fit, not a confirmed value.
# Assay: Primary qHTS for delayed death inhibitors of the malarial parasite plastid, 96 hour incubation
# Details: P. falciparum luciferase reporter growth; series mostly up to 28.7 µM; activity change, negative = inhibition: at the top concentration
# Procedure, shortened: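 Luminescence readout: decreased luciferase signal marks inhibited growth of reporter-expressing P. falciparum in infected red cells (2% hematocrit, 0.05% parasitemia final), exposed to compound two generations (96 h, 37 C, 5% CO2).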
# % is scaled to controls: 0 for no effect and ±100 for the full control effect; potency is read from the fitted curve at half-maximal effect.
SMILES,Potency,"activity change, negative = inhibition"
C=CCNc1cnn(-c2ccc(C)cc2)c(=O)c1Cl,"inconclusive: 0.0029 µM [inhibitor, full curve, poor fit]",
CC1CCC2(CC1)Nc1ccccc1C(=O)N2c1ccccc1 (configuration not stated),,inactive: 56.4%
CN(Cc1ccccc1)C(=O)COc1ccccc1,,inactive: 149%
CCCc1ccc(Oc2cn[nH]c2-c2ccc(O)c(C)c2O)cc1,active: 10.4 µM,
O=C1C(C=Nc2ccccc2O)=C(O)c2ccccc21,"inconclusive: 8.28 µM [inhibitor, partial curve]",
COc1ccc(Cl)cc1C(=O)Nc1cccc2ncccc12,active: 0.233 µM,
CCOc1ccc(-n2ccnc(SCC(=O)NCc3cccc(OC)c3)c2=O)cc1,,inactive: -8.71%
Oc1ccc(/C=N/Nc2ncnc3c2ncn3Cc2ccccc2)cc1O,"inconclusive: 18.5 µM [inhibitor, single point]",
Fc1cccc(Cl)c1CNc1ccc(N2CCCC2)cc1,,inactive: 22.6%
Cc1ccc(C)c(S(=O)(=O)NCc2ccc(C(=O)N3CCCCCC3)cc2)c1,active: 7.38 µM,
COc1cccc(OC)c1C(=O)Nc1ccc(S(=O)(=O)Nc2ncccn2)cc1,,inactive: 240%
CCOC(=O)CCCn1ccc2cc(S(=O)(=O)N3CCCC3)ccc21,"inconclusive: 14.7 µM [inhibitor, single point]",
COc1ccc2[nH]cc(CCn3ccc(=O)c(C)c3C)c2c1,"inconclusive: 18.5 µM [inhibitor, single point]",
CCOc1ccc(Br)cc1S(=O)(=O)Nc1cccc(S(=O)(=O)N(CC)CC)c1,"inconclusive: 7.38 µM [inhibitor, partial curve, poor fit]",
O=C(CSc1nnc(SCc2ccc(Cl)cc2)s1)N/N=C/c1ccccc1C(=O)O,,inactive: 31.7%
Cc1cccc(-n2nc3c(c2NC(=O)c2ccco2)CS(=O)C3)c1C (configuration not stated),"inconclusive: 0.329 µM [inhibitor, full curve]",
Cc1ccc(CN(C(=O)c2cccs2)C2CCS(=O)(=O)C2)cc1 (configuration not stated),,inactive: -47.9%
COc1cc(CC(=O)Nc2ccc(S(=O)(=O)NC3=NCCCCC3)cc2)cc(OC)c1OC,"inconclusive: 20.8 µM [inhibitor, partial curve, poor fit]",
Cc1ccc(NS(=O)(=O)c2ccc(C(=O)NCc3ccncc3)cc2)cc1,"inconclusive: 13.1 µM [inhibitor, single point]",
Cc1ccccc1Nc1ccc([N+](=O)[O-])cn1,"inconclusive: 18.5 µM [inhibitor, single point]",
O=C(Nc1cccnc1)c1ccc([N+](=O)[O-])s1,"inconclusive: 4.15 µM [inhibitor, full curve, poor fit]",
CCOC(=O)Cn1ncc2c(=O)oc3ccccc3c21,,inactive: 57.2%
CC(C)CCn1cnc2c1c(=O)[nH]c(=O)n2Cc1ccccc1,"inconclusive: 1.31 µM [inhibitor, full curve]",
Cc1ccc(-n2c(O)c(C=NCc3ccccn3)c3ccccc3c2=O)cc1C,"inconclusive: 18.5 µM [inhibitor, single point]",

SMILES,Potency,"activity change, negative = inhibition"
Oc1c(C=C2N=c3ccccc3=N2)sc(=S)n1C1CCCCC1,"inconclusive: 10.4 µM [inhibitor, single point]",
CC[C@H](C)Cc1cn([C@@H](CCCN=C(NC(=O)OC(C)(C)C)NC(=O)OC(C)(C)C)C(=O)NCCCCCCCCCCC(=O)N2CCN(C(=O)OC(C)(C)C)CC2)nn1,active: 1.47 µM,
O=C(Cn1c(=O)oc2cc(S(=O)(=O)N3CCc4ccccc43)ccc21)N1CCCCC1,"inconclusive: 18.5 µM [inhibitor, single point]",
O=C(CCC(=O)Nc1ccc(F)cc1)N/N=C/c1c[nH]c2ccccc12,"inconclusive: 4.65 µM [inhibitor, partial curve]",
O=C(O)c1ccc2c(c1)C(=O)N(CCc1ccc(O)cc1)C2=O,,inactive: -6.9%
COc1ccc(-n2nc(C(=O)NCC(=O)NCCCN3CC(C)CC(C)C3)c3ccccc3c2=O)cc1OC (configuration not stated),,inactive: -0.929%
Cc1cc(C(=O)N2CCCC(C(=O)c3ccc4ccccc4c3)C2)nn1C (configuration not stated),"inconclusive: 14.7 µM [inhibitor, single point]",
O=C(Nc1cc([N+](=O)[O-])ccc1N1CCOCC1)c1ccco1,"inconclusive: 10.4 µM [inhibitor, single point]",
Cc1csc(NC(=O)c2cccc(S(=O)(=O)N3CCN(C)CC3)c2)n1,,inactive: 3.83%
COc1cc(OC)c(C(=O)OCC(=O)N2CC(=O)Nc3ccccc32)cc1OC,,inactive: 0%
CC(=O)Nc1ccccc1NC(=O)C/C(C)=N/NC(=O)c1cccnc1,"inconclusive: 18.5 µM [inhibitor, partial curve, poor fit]",
COc1ccc(N=C2NC(=O)/C(=C\C=C\c3ccccc3)S2)cc1,,inactive: -0.951%
CSc1ccc(S(=O)(=O)N2CCC(C(=O)Nc3ccc(C(N)=O)cc3)CC2)cc1,active: 4.65 µM,
CCN(CC)c1ccc(NC(=O)c2ccccn2)cc1S(=O)(=O)Nc1ccccc1OC,active: 10.4 µM,
Cn1c(=O)cc(Nc2ccccc2)[nH]c1=O,"inconclusive: 10.4 µM [inhibitor, partial curve, poor fit]",
COc1ccc(C(=O)c2coc3c2C(=O)C(=O)c2ccccc2-3)cc1,"inconclusive: 11.7 µM [inhibitor, single point]",
Cc1cc(NC(=O)CSCC(=O)Nc2ccccc2Oc2ccccc2)no1,,inactive: -19.7%
CC(C)(Oc1ccc(Cl)cc1)C(=O)NCc1ccco1,,inactive: 151%
C(=C\c1ccncc1)/c1ccccc1,"inactive and inconclusive: 11.7 µM [inhibitor, single point]",
Cc1nc(N2CCN(c3ccccc3)CC2)nc2c1C(=O)CC(C)C2 (configuration not stated),,inactive: -5.74%
O=C(CSc1nc2ccccc2c(=O)n1-c1ccc(F)cc1F)Nc1ccc2c(c1)CCC2,"inconclusive: 9.28 µM [inhibitor, partial curve]",
CC(=O)NCCOc1c(C)cc(S(N)(=O)=O)cc1C,"inconclusive: 18.5 µM [inhibitor, partial curve, poor fit]",
Oc1[nH]c2ccc(Br)cc2c1N=Nc1ccc(C(F)(F)F)cn1,active: 9.28 µM,
